Results as given in the supplement of paper PMC12823440, “Inhibitors supercharge kinase turnover through native proteolytic circuits” (Nature, 2025).
The other results are listed elsewhere or left out. Hit calls seldom repeat between salt and free forms of one compound.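 Kinases, fused to nanoluciferase, were expressed in K562 cells; luminescence was measured every 4 h from 2 to 18 h as percent of control (DMSO = 100%, positive control = 0%). A time point is decreased if signal falls significantly (2 sigma). Hits were called by the authors by a rule that is not shown; the count of time points alone does not decide it.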

By UniProt entry, the sequences of proteins in these tests, tags left out. Where a name states a change or a piece, a line headed by the entry shows the natural chain unless it says otherwise.
UniProt P28482, whole entry: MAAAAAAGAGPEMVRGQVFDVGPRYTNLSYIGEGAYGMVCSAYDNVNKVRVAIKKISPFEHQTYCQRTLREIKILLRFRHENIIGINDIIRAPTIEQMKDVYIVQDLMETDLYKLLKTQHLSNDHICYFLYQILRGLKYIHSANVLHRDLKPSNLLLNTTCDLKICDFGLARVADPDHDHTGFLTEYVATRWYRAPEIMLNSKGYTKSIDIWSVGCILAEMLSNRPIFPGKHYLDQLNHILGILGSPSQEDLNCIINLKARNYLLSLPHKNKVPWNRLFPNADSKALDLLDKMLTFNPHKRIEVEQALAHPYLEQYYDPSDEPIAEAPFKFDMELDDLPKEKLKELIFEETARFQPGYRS
UniProt P31152, whole entry: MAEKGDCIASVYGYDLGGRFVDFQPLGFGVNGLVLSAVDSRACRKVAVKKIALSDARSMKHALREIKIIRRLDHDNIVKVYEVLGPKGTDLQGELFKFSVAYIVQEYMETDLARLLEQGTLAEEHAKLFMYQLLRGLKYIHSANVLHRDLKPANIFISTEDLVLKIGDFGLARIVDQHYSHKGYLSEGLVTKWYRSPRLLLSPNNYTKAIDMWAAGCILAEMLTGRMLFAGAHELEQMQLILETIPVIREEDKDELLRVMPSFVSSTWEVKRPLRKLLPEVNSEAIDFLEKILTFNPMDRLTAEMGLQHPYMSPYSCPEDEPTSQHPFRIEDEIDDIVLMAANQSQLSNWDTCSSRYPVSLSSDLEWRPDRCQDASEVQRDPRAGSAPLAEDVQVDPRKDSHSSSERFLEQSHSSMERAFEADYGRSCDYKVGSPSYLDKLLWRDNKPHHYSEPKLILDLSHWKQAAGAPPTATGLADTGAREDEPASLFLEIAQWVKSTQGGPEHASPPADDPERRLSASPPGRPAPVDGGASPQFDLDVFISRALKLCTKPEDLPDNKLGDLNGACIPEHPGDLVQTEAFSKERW
UniProt Q16620, whole entry, looked up: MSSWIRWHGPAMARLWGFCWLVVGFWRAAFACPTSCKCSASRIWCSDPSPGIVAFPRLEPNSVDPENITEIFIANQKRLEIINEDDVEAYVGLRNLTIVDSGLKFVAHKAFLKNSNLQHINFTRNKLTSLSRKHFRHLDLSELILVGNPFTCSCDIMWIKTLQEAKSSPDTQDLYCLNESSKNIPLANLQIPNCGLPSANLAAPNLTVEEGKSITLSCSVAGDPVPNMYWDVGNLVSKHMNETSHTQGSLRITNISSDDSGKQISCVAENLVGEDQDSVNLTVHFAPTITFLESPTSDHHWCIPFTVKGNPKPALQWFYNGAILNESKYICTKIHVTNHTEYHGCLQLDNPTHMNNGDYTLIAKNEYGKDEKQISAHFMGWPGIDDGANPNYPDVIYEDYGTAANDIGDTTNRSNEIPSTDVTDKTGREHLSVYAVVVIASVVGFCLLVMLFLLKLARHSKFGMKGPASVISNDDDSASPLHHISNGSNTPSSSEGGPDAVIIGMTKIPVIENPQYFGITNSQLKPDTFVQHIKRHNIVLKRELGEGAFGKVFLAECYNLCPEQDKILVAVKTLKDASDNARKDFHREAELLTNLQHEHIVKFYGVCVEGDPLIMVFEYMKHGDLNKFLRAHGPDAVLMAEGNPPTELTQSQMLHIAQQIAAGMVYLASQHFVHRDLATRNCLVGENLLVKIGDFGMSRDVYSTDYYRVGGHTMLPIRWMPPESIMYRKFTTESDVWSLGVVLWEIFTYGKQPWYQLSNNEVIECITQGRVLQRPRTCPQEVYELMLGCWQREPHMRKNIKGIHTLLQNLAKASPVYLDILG
UniProt Q16288, whole entry, looked up: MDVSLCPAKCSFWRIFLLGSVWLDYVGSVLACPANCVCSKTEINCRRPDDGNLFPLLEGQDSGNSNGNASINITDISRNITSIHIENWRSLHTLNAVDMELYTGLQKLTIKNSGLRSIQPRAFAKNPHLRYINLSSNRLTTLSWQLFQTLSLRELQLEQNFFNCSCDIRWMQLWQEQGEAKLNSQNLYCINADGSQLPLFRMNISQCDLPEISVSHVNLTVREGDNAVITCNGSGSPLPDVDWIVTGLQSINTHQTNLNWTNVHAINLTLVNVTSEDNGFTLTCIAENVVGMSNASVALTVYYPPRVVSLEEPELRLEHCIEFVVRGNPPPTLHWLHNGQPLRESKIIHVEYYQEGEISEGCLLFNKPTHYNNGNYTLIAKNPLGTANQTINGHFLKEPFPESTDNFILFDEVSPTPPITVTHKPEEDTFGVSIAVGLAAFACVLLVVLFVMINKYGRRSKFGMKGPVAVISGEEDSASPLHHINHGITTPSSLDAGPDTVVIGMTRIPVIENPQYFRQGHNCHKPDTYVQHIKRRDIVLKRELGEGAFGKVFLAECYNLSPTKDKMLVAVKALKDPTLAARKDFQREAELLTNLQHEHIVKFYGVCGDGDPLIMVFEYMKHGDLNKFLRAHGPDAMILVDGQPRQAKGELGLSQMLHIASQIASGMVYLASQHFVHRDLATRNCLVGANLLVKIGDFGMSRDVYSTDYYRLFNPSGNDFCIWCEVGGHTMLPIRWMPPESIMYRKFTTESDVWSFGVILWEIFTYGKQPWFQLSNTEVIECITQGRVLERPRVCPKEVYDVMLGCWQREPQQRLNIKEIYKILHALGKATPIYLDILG
UniProt O96013: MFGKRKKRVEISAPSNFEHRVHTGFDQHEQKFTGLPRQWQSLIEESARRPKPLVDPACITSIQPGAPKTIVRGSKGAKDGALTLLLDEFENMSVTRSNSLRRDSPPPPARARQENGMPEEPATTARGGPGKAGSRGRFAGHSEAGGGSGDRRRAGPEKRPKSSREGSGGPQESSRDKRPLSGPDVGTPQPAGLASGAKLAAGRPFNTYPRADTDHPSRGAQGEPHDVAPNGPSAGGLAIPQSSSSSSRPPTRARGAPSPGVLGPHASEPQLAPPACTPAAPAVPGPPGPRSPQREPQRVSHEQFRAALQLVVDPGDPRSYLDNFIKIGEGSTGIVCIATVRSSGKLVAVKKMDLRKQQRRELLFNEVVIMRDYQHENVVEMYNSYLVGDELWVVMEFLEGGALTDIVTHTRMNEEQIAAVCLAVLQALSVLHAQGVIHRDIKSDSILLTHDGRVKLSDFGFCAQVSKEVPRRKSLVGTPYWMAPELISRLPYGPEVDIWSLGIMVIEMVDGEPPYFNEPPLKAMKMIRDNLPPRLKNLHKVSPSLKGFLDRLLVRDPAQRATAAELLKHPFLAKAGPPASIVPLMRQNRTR
UniProt Q96KB5: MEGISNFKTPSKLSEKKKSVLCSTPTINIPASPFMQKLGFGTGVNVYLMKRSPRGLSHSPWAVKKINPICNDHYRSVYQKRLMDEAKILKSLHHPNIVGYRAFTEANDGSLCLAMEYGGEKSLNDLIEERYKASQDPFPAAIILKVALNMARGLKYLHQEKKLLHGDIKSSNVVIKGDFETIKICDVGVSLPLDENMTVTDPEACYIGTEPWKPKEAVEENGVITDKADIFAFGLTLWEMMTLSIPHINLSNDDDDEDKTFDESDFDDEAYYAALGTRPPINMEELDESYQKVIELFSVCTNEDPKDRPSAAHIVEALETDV
UniProt O15530: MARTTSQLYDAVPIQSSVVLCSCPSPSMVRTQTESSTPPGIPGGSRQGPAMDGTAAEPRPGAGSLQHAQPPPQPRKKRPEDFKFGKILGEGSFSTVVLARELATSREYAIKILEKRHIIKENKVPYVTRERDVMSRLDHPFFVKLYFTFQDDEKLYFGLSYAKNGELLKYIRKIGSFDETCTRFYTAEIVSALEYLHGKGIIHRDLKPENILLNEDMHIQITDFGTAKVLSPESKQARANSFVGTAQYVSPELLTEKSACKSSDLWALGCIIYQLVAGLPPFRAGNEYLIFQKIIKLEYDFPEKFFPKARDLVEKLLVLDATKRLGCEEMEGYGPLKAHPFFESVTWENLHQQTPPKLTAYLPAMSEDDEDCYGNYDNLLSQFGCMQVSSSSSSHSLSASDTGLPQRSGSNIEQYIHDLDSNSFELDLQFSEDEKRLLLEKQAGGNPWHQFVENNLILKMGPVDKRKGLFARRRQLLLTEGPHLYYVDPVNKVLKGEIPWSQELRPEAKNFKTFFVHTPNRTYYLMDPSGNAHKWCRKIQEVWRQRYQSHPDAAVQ
UniProt Q9UBF8: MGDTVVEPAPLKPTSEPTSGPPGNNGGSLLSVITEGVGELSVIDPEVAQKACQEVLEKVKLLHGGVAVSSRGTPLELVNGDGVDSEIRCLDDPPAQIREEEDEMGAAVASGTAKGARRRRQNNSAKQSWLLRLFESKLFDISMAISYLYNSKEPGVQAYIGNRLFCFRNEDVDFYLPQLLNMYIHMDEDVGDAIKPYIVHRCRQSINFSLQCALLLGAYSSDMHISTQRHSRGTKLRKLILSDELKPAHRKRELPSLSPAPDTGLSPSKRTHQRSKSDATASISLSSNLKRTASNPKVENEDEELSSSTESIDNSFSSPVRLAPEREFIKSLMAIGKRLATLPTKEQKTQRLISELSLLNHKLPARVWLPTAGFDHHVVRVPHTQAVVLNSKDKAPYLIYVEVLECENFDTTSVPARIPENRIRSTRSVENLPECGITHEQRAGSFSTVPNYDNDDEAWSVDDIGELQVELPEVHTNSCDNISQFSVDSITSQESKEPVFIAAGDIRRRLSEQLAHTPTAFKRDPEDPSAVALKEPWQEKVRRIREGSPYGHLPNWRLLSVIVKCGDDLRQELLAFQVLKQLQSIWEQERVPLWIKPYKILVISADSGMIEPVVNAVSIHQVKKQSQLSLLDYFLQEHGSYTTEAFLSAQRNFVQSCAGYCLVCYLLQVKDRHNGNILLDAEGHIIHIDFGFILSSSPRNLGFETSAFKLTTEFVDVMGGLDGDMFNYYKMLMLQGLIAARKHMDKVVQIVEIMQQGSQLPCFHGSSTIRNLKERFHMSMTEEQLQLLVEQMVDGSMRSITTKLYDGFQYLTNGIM
UniProt P53350, whole entry: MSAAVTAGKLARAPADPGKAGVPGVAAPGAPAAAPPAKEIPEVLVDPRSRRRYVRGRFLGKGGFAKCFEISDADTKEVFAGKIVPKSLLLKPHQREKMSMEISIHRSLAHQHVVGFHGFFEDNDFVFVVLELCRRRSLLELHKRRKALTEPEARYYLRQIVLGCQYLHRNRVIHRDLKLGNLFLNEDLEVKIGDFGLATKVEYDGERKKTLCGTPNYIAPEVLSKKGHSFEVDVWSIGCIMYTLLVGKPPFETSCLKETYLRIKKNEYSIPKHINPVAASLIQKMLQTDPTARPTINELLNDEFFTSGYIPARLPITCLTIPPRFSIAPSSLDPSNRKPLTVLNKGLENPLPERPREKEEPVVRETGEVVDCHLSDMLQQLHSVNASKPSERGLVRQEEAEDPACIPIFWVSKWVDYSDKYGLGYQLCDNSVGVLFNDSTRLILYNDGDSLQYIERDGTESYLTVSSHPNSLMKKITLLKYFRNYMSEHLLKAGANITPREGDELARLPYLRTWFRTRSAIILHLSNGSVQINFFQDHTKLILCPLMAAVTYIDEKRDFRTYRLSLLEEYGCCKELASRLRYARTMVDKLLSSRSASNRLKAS
UniProt Q05397, whole entry, looked up: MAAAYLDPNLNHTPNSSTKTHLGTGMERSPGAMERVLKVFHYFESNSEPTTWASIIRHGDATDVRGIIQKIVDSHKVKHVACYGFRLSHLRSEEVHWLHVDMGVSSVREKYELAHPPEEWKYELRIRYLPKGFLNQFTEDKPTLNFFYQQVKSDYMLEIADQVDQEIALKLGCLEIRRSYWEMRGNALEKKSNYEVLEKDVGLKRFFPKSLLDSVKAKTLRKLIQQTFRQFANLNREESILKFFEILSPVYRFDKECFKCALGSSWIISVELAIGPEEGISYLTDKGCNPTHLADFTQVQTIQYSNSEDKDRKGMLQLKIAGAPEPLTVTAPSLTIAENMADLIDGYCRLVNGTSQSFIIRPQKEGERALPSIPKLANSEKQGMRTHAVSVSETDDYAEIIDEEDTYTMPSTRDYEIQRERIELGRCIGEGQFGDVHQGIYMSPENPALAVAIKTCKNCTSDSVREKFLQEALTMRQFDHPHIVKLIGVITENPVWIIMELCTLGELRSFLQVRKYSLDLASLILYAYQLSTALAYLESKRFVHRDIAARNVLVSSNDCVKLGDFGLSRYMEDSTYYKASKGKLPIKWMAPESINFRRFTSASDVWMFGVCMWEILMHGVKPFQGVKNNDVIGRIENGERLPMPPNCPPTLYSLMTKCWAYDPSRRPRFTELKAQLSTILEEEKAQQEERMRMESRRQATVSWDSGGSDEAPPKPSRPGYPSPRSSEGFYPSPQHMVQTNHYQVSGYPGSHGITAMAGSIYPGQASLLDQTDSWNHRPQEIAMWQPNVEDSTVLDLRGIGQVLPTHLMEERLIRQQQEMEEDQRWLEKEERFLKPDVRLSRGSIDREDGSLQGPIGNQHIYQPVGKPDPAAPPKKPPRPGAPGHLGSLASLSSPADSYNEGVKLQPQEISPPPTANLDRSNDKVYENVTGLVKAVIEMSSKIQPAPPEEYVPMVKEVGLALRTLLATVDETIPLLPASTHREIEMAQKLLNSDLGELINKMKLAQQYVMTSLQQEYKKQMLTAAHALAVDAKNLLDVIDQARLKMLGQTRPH

Tests used:
Test in all cases: kinase-Nluc reporter destabilization hit call (1 = scored as downregulated) (binary); higher = compound decreases kinase abundance
Settings in all cases: K562; 2-18 h
MAPK1 = MAPK1 (UniProt P28482)
MAPK4 = MAPK4 (UniProt P31152)
MAPKAPK2 = MAPKAPK2 (UniProt P49137)
MKNK1 = MKNK1 (UniProt Q9BUB5)
NTRK2 = NTRK2 (UniProt Q16620)
NTRK3 = NTRK3 (UniProt Q16288)
PAK4 = PAK4 (UniProt O96013)
PBK = PBK (UniProt Q96KB5)
PDGFRB = PDGFRB (UniProt P09619)
PDK1 = PDK1 (UniProt Q15118)
PDPK1 = PDPK1 (UniProt O15530)
PIK4CA = PIK4CA (UniProt P42356)
PIK4CB = PIK4CB (UniProt Q9UBF8)
PLK1 = PLK1 (UniProt P53350)
PRKAA1 = PRKAA1 (UniProt Q13131)
PRKCA = PRKCA (UniProt P17252)
PTK2 = PTK2 (UniProt Q05397)
PTK2B = PTK2B (UniProt Q14289)
RAF1 = RAF1 (UniProt P04049)
[1] = target: RAF1_S257L (clone: RAF1_mut) (UniProt P04049)

Measured: kinase-Nluc reporter destabilization hit call

Nc1cc(Nc2ccc(S(N)(=O)=O)cc2)ncn1 (10 µM)
inactive: MAPK1 = 0 | MAPK4 = 0 | MAPKAPK2 = 0 | MKNK1 = 0 | NTRK2 = 0 | NTRK3 = 0 | PAK4 = 0 | PBK 0 | PDGFRB 0 | PDK1 = 0 | PDPK1 = 0 | PIK4CA 0 | PIK4CB 0 | PLK1 = 0 | PRKAA1 = 0 | PRKCA 0 | PTK2 = 0 | PTK2B 0 | RAF1 = 0 | [1] 0

C=CC(=O)Nc1ccc(CN(C(=O)Nc2c(Cl)c(OC)cc(OC)c2Cl)c2cc(Nc3ccc(N4CCN(C)CC4)cc3)ncn2)cc1 (10 µM)
inactive: MAPK1 = 0 | MAPK4 = 0 | MAPKAPK2 = 0 | MKNK1 = 0 | NTRK2 = 0 | NTRK3 = 0 | PAK4 = 0 | PBK 0 | PDGFRB 0 | PDK1 = 0 | PDPK1 = 0 | PIK4CA 0 | PIK4CB 0 | PLK1 = 0 | PRKAA1 = 0 | PRKCA 0 | PTK2 = 0 | PTK2B 0 | RAF1 = 0 | [1] 0

CNCc1ccccc1-c1csc([C@@H](C)Nc2nc(C)nc3cc(OC)c(OC)cc23)c1 (2.5 µM)
inactive: MAPK1 = 0 | MAPK4 = 0 | MAPKAPK2 = 0 | MKNK1 = 0 | NTRK2 = 0 | NTRK3 = 0 | PAK4 = 0 | PBK 0 | PDGFRB 0 | PDK1 = 0 | PDPK1 = 0 | PIK4CA 0 | PIK4CB 0 | PLK1 = 0 | PRKAA1 = 0 | PRKCA 0 | PTK2 = 0 | PTK2B 0 | RAF1 = 0 | [1] 0

CC(=O)N1CCN(c2cc(-c3cc(C(F)(F)F)c4c(N)ncnn34)ccc2C#N)C(=O)C1(C)C (10 µM)
inactive: MAPK1 = 0 | MAPK4 = 0 | MAPKAPK2 = 0 | MKNK1 = 0 | NTRK2 = 0 | NTRK3 = 0 | PAK4 = 0 | PBK 0 | PDGFRB 0 | PDK1 = 0 | PDPK1 = 0 | PIK4CA 0 | PIK4CB 0 | PLK1 = 0 | PRKAA1 = 0 | PRKCA 0 | PTK2 = 0 | PTK2B 0 | RAF1 = 0 | [1] 0

N#Cc1c(-c2ccccc2)cc(-c2cc(Br)ccc2O)[nH]c1=O (10 µM)
inactive: MAPK1 = 0 | MAPK4 = 0 | MAPKAPK2 = 0 | MKNK1 = 0 | NTRK2 = 0 | NTRK3 = 0 | PAK4 = 0 | PBK 0 | PDGFRB 0 | PDK1 = 0 | PDPK1 = 0 | PIK4CA 0 | PIK4CB 0 | PLK1 = 0 | PRKAA1 = 0 | PRKCA 0 | PTK2 = 0 | PTK2B 0 | RAF1 = 0 | [1] 0

c1cc2c(cc1O[C@H]1OC[C@H]3[C@@H]1CO[C@@H]3c1ccc3c(c1)OCO3)OCO2 [Sesamolin] (10 µM)
inactive: MAPK1 = 0 | MAPK4 = 0 | MAPKAPK2 = 0 | MKNK1 = 0 | NTRK2 = 0 | NTRK3 = 0 | PAK4 = 0 | PBK 0 | PDGFRB 0 | PDK1 = 0 | PDPK1 = 0 | PIK4CA 0 | PIK4CB 0 | PLK1 = 0 | PRKAA1 = 0 | PRKCA 0 | PTK2 = 0 | PTK2B 0 | RAF1 = 0 | [1] 0

Nothing new here: two of the compounds above.
CNCc1ccccc1-c1csc([C@@H](C)Nc2nc(C)nc3cc(OC)c(OC)cc23)c1 (2.5 µM)
inactive: MAPK1 = 0 | MAPK4 = 0 | MAPKAPK2 = 0 | MKNK1 = 0 | NTRK2 = 0 | NTRK3 = 0 | PAK4 = 0 | PBK 0 | PDGFRB 0 | PDK1 = 0 | PDPK1 = 0 | PIK4CA 0 | PIK4CB 0 | PLK1 = 0 | PRKAA1 = 0 | PRKCA 0 | PTK2 = 0 | PTK2B 0 | RAF1 = 0 | [1] 0

CC(=O)N1CCN(c2cc(-c3cc(C(F)(F)F)c4c(N)ncnn34)ccc2C#N)C(=O)C1(C)C (10 µM)
inactive: MAPK1 = 0 | MAPK4 = 0 | MAPKAPK2 = 0 | MKNK1 = 0 | NTRK2 = 0 | NTRK3 = 0 | PAK4 = 0 | PBK 0 | PDGFRB 0 | PDK1 = 0 | PDPK1 = 0 | PIK4CA 0 | PIK4CB 0 | PLK1 = 0 | PRKAA1 = 0 | PRKCA 0 | PTK2 = 0 | PTK2B 0 | RAF1 = 0 | [1] 0

Further records

CC1=C2C(=O)O[C@@H](c3ccoc3)[C@]2(C)CCC1 [Fraxinellone] (10 µM)
inactive: MAPK1 = 0 | MAPK4 = 0 | MAPKAPK2 = 0 | MKNK1 = 0 | NTRK2 = 0 | NTRK3 = 0 | PAK4 = 0 | PBK 0 | PDGFRB 0 | PDK1 = 0 | PDPK1 = 0 | PIK4CA 0 | PIK4CB 0 | PLK1 = 0 | PRKAA1 = 0 | PRKCA 0 | PTK2 = 0 | PTK2B 0 | RAF1 = 0 | [1] 0

Cc1csc(-c2nnc(Nc3ccc(Oc4ncccc4-c4ccnc(N)n4)cc3)c3ccccc23)c1 (2.5 µM)
inactive: MAPK1 = 0 | MAPK4 = 0 | MAPKAPK2 = 0 | MKNK1 = 0 | NTRK2 = 0 | NTRK3 = 0 | PAK4 = 0 | PBK 0 | PDGFRB 0 | PDK1 = 0 | PDPK1 = 0 | PIK4CA 0 | PIK4CB 0 | PLK1 = 0 | PRKAA1 = 0 | PRKCA 0 | PTK2 = 0 | PTK2B 0 | RAF1 = 0 | [1] 0

CCN(CC)c1ccc2cc(C(=O)N3CCN(C(=O)C4=Cc5c(Br)cccc5S4(=O)=O)CC3)c(=O)oc2c1 (2 µM)
inactive: MAPK1 = 0 | MAPK4 = 0 | MAPKAPK2 = 0 | MKNK1 = 0 | NTRK2 = 0 | NTRK3 = 0 | PAK4 = 0 | PBK 0 | PDGFRB 0 | PDK1 = 0 | PDPK1 = 0 | PIK4CA 0 | PIK4CB 0 | PLK1 = 0 | PRKAA1 = 0 | PRKCA 0 | PTK2 = 0 | PTK2B 0 | RAF1 = 0 | [1] 0

C=C1C(=O)O[C@@H]2C[C@@]3(C)CCC[C@H](C)C3=C[C@H]12 [Alantolactone] (10 µM)
inactive: MAPK1 = 0 | MAPK4 = 0 | MAPKAPK2 = 0 | MKNK1 = 0 | NTRK2 = 0 | NTRK3 = 0 | PAK4 = 0 | PBK 0 | PDGFRB 0 | PDK1 = 0 | PDPK1 = 0 | PIK4CA 0 | PIK4CB 0 | PLK1 = 0 | PRKAA1 = 0 | PRKCA 0 | PTK2 = 0 | PTK2B 0 | RAF1 = 0 | [1] 0

Cc1ccc(NC(=S)NNc2c([N+](=O)[O-])cc(C(F)(F)F)cc2[N+](=O)[O-])cc1Cl (10 µM)
inactive: MAPK1 = 0 | MAPK4 = 0 | MAPKAPK2 = 0 | MKNK1 = 0 | NTRK2 = 0 | NTRK3 = 0 | PAK4 = 0 | PBK 0 | PDGFRB 0 | PDK1 = 0 | PDPK1 = 0 | PIK4CA 0 | PIK4CB 0 | PLK1 = 0 | PRKAA1 = 0 | PRKCA 0 | PTK2 = 0 | PTK2B 0 | RAF1 = 0 | [1] 0

NCc1ccc(Nc2ncc(F)c(Nc3ccccc3)n2)cc1 (10 µM)
inactive: MAPK1 = 0 | MAPK4 = 0 | MAPKAPK2 = 0 | MKNK1 = 0 | NTRK2 = 0 | NTRK3 = 0 | PAK4 = 0 | PBK 0 | PDGFRB 0 | PDK1 = 0 | PDPK1 = 0 | PIK4CA 0 | PIK4CB 0 | PLK1 = 0 | PRKAA1 = 0 | PRKCA 0 | PTK2 = 0 | PTK2B 0 | RAF1 = 0 | [1] 0

CC(C)c1cnc(-c2cc(Cl)ccc2F)cc1Nc1ccncc1C(=O)NC(CO)CO (2.5 µM)
inactive: MAPK1 = 0 | MAPK4 = 0 | MAPKAPK2 = 0 | MKNK1 = 0 | NTRK2 = 0 | NTRK3 = 0 | PAK4 = 0 | PBK 0 | PDGFRB 0 | PDK1 = 0 | PDPK1 = 0 | PIK4CA 0 | PIK4CB 0 | PLK1 = 0 | PRKAA1 = 0 | PRKCA 0 | PTK2 = 0 | PTK2B 0 | RAF1 = 0 | [1] 0

Cn1cc(Nc2nccc(N3C[C@H]4CC[C@@H](C3)N4C(=O)[C@@H]3CC3(F)F)n2)cn1 (10 µM)
inactive: MAPK1 = 0 | MAPK4 = 0 | MAPKAPK2 = 0 | MKNK1 = 0 | NTRK2 = 0 | NTRK3 = 0 | PAK4 = 0 | PBK 0 | PDGFRB 0 | PDK1 = 0 | PDPK1 = 0 | PIK4CA 0 | PIK4CB 0 | PLK1 = 0 | PRKAA1 = 0 | PRKCA 0 | PTK2 = 0 | PTK2B 0 | RAF1 = 0 | [1] 0

O=C(Nc1ccc(F)cc1F)[C@H](NC(=S)Nc1cc(C(F)(F)F)cc(C(F)(F)F)c1)c1ccccc1 (2.5 µM)
inactive: MAPK1 = 0 | MAPK4 = 0 | MAPKAPK2 = 0 | MKNK1 = 0 | NTRK2 = 0 | NTRK3 = 0 | PAK4 = 0 | PBK 0 | PDGFRB 0 | PDK1 = 0 | PDPK1 = 0 | PIK4CA 0 | PIK4CB 0 | PLK1 = 0 | PRKAA1 = 0 | PRKCA 0 | PTK2 = 0 | PTK2B 0 | RAF1 = 0 | [1] 0

CC(C)NC(=O)N1CC[C@H](NC2=Nc3cc(F)ccc3N(CC(F)F)c3ccc(Cl)cc32)C1 (10 µM)
inactive: MAPK1 = 0 | MAPK4 = 0 | MAPKAPK2 = 0 | MKNK1 = 0 | NTRK2 = 0 | NTRK3 = 0 | PAK4 = 0 | PBK 0 | PDGFRB 0 | PDK1 = 0 | PDPK1 = 0 | PIK4CA 0 | PIK4CB 0 | PLK1 = 0 | PRKAA1 = 0 | PRKCA 0 | PTK2 = 0 | PTK2B 0 | RAF1 = 0 | [1] 0

Cc1ccc(-c2c(C(=O)CF)n(CCCO)c3ncnc(N)c23)cc1 (10 µM)
inactive: MAPK1 = 0 | MAPK4 = 0 | MAPKAPK2 = 0 | MKNK1 = 0 | NTRK2 = 0 | NTRK3 = 0 | PAK4 = 0 | PBK 0 | PDGFRB 0 | PDK1 = 0 | PDPK1 = 0 | PIK4CA 0 | PIK4CB 0 | PLK1 = 0 | PRKAA1 = 0 | PRKCA 0 | PTK2 = 0 | PTK2B 0 | RAF1 = 0 | [1] 0
